From patent US20100160234A1
No constants are given. Whether binding was seen depends on the method and setting. Some binding calls cover weakened binding; strength is not graded here. Sequences can lack the tags named with a protein.

Sequences of proteins named here, by UniProt entry; tags and fusion partners are left off.
UniProt P06730: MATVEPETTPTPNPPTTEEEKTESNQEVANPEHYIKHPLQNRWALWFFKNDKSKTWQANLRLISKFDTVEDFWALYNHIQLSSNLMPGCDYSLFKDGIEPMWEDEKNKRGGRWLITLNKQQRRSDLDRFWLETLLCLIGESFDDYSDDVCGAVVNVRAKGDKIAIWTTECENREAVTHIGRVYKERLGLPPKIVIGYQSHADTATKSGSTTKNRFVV

Target: Human eIF4E (immobilised in ELISA wells) (human) (UniProt P06730)
Experiment: ELISA, human eIF4E coated on the plate, GST-fusion peptide detected with anti-GST HRP antibody

For RKKGKGKGTTVGMGKSSRRFINMYGF (peptide, not shown: a dimerising Fc or GST) [GST-fusion of VPg5 (SEQ ID NO: 18)], the binding was “binds”.
